Assay results published in PMC7806630, “Molecular basis of the interaction of the human tyrosine phosphatase PTPN3 with the hepatitis B virus core protein” (Scientific Reports, 2021).

By UniProt entry, the sequences of proteins in these tests, tags left out. Where a name states a change or a piece, a line headed by the entry shows the natural chain unless it says otherwise.
UniProt P29074: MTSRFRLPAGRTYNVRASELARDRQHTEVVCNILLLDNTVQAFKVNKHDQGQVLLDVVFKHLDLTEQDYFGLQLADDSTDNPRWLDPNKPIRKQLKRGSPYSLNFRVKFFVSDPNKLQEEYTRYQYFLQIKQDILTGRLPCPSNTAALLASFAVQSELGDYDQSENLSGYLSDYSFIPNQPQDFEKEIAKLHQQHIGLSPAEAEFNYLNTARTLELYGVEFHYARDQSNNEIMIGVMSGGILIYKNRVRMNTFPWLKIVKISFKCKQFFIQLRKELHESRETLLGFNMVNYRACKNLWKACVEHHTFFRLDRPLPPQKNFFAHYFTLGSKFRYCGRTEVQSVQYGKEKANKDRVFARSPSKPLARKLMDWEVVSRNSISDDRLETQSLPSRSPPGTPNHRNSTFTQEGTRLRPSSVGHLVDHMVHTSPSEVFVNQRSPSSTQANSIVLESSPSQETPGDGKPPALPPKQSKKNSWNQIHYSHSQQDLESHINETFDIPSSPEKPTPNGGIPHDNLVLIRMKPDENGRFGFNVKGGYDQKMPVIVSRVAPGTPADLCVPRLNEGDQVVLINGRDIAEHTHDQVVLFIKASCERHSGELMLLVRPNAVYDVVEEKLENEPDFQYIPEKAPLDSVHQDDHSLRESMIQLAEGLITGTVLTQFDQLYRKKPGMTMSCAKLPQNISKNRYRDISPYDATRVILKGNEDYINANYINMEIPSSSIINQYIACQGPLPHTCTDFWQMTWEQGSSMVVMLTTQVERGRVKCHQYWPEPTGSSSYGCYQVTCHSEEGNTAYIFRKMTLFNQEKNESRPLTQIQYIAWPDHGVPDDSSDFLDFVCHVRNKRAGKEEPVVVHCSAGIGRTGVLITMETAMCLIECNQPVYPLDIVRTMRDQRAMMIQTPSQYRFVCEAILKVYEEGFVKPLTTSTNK

Biological target: T1, biotinylated PBM-HBc peptide (hepatitis B virus)
T1 sequence (peptide, biotin (position not stated)): RRRRSQSRESQC
Experiment: holdup assay; automated high-throughput holdup assay, biotinylated PBM-HBc peptide against the human PDZ domain library, duplicates; threshold binding intensity 0.2

Substance: PDZ domain of the non-receptor protein tyrosine phosphatase 4 (PTPN4) (from UniProt P29074) (domain or fragment)
- binding: binds

These are yes or no findings as the source states them, for the method shown. Binding can be weak; no strength is given.
